The list is a part of this screen's results and no random one: it gathers tests that were run many times, whatever their T/C, doses with no T/C, and many T/C values between a quarter and a half above the control. Further doses and runs are listed elsewhere. T/C is the treated group as % of the vehicle group. Some entries give survivors of the animals treated and no T/C: the source files T/C as zero there, which appears to mark a toxic dose or a test without result, not a measured value. Survivors were counted at the toxicity check, usually on the fifth day, unless a day is given; later deaths do not show. Schedules are NCI's codes, read here as Q, the interval in days (D) or hours (H), X, the number of doses.
Test system: L1210 leukemia ip in BDF1 mice, survival T/C
Assay: NCI In Vivo Anticancer Drug Screen. Data for tumor model L1210 Leukemia (intraperitoneal) in B6D2F1 (BDF1) mice
Conditions: T/C endpoint: mean survival time, schedule: Q04DX003 (ip), vehicle: saline with Tween-80, higher T/C = longer survival

For CC(=O)[O][Hg][c]1s[c]([Hg][O]C(C)=O)[c]([Hg][O]C(C)=O)[c]1[Hg][O]C(C)=O, which survivor count (dose: 100.0 mg/kg/injection) is on record?
Its survivor count is 1 of 6.

What about the survivor count (dose: 200.0 mg/kg/injection) of the same molecule?
Its survivor count is 0 of 6.

What about the survivor count (dose: 400.0 mg/kg/injection) of the same molecule?
The survivor count was 0 of 6.

Source: PubChem BioAssay AID248 (DTP/NCI, 2004)
